Here are results for 1 molecule from paper PMC7998613, “Annexin A2 Flop-Out Mediates the Non-Vesicular Release of DAMPs/Alarmins from C6 Glioma Cells Induced by Serum-Free Conditions” (Cells, 2021).

These are yes or no findings as the source states them, for the method shown. In cells and extracts the contact can be indirect. Some entries that bind do so weakly or less than the wild type.

This assay concerns the target S100A13, endogenous in C6 glioma cells (rat (endogenous in C6 glioma cells)). Description: proximity ligation; Duolink in situ PLA on fixed C6 glioma cells with mouse anti-S100A13 and rabbit anti-ANXA2. Cells were sampled before and at 1.5 and 3 h after change to serum-free medium, with 100 µM amlexanox in the culture.

B1: annexin A2 (ANXA2), endogenous in C6 glioma cells (natural protein, rat (endogenous in C6 glioma cells), UniProt Q07936 1-339, looked up)
chain: MSTVHEILCKLSLEGDHSTPPSAYGSVKPYTNFDAERDALNIETAIKTKGVDEVTIVNILTNRSNAQRQDIAFAYQRRTKKELPSAMKSALSGHLETVMLGLLKTPAQYDASELKASMKGLGTDEDSLIEIICSRTNQELQEINRVYKEMYKTDLEKDIISDTSGEFRKLLVALAKGKRAEDGSVIDYELIDQDARELYDAGVKRKGTDVPKWISIMTERSVCHLQKVFERYKSYSPYDMLESIRKEVKGDLENAFLNLVQCIQNKPLYFADRLYDSMKGKGTRDKVLIRIMVSRSEVDMLKIRSEFKRKYGKSLYYFIQQDTKGDYQKALLYLCGGDD
notes: annexin A2, rat, endogenous in C6 glioma cells; In whole cell extracts it ran as a single band; also called dimeric ANXA2 of 63 kDa; ANXA2 dimer; source: endogenous, rat C6 glioma cells (cytosolic fraction; fixed cells for in situ PLA)
For B1, the binding result was “binds”.
